Assay results reported in US20050226863A1 (MIT, published 2005).
These are yes or no findings as the source states them, for the method shown. Some entries that bind do so weakly or less than the wild type.

Tests used:
[1] = biological target: T1, peptide consisting of the first 20 amino acids of htt, …-biotin; experiment: yeast surface display, flow cytometry dot plot; FL1 = display, FL2 = binding of the huntingtin peptide at 1 nM (concentration from the legend)
T1 sequence (peptide, C-terminal biotin): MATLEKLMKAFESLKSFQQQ

[2] = biological target: T1, peptide consisting of the first 20 amino acids of htt, …-biotin; experiment: yeast surface display, flow cytometry dot plot; FL1 = display, FL2 = binding of the huntingtin peptide at 1 nM
[3] = biological target: T1, peptide consisting of the first 20 amino acids of htt, …-biotin; experiment: yeast surface display, flow cytometry, labeled at 1 nM huntingtin peptide

Measured: binding

B1: engineered (affinity matured) disulfide-free SDIb of Examples 1 and 3 (other)
VL: SRPVLTQSPSVSAAPRQRVTISVSGSNSNIGSNTVNWIQQLPGRAPELLMYDDDLLAPGVSDRFSGSRSGTSASLTISGLQSEDEADYYAATWDDSLNDWVFGGGTKVTVLS
notes: expressed in yeast cytoplasm for the aggregation assay (construct not described); also called engineered SDIb
binds: all assays above
